# Data published in patent publication EP2890687B1, “SALTS OF BENZO[…] AS BETA-2-AD[…]” (priority 2012, dated 2014).
# Key:
# [1] = system: isolated Langendorff perfused rabbit hearts; assay: Automaticity in isolated Langendorff perfused rabbit hearts; conditions: isolated rabbit heart, n=3
# [2] = system: Sino-Atrial node; assay: Sino-Atrial node beating rate in isolated rabbit right atrium; parameters: species or system New Zealand white female rabbits; conditions: n=6
# [3] = system: skeletal muscle and heart; conditions: rats, s.c. minipump 28 days; formoterol 0.003-0.03, Compound A 0.01-0.1 mg/kg/day
structure (smiles),measurement,setting,value
"COc1ccc(CC(C)NCC(O)c2ccc(O)c(NC=O)c2)cc1 (stereo not drawn) [Formoterol, reference compound]","Automaticity, maximum increase",[1],+46%
same,"Sino-Atrial node beating rate, maximum increase",[2],+45%
same,skeletal muscle mass and heart mass increase (Figure 1),[3],induces both skeletal muscle hypertrophy and heart mass increase to the same extent
